Laboratory results: publication PMC5808637
No constants are given. Whether binding was seen depends on the method and setting. Binding seen in cells or lysates may run through a third protein. Some binding calls cover weakened binding; strength is not graded here. Tags and fused reporters may be left off the sequences shown.

Chains of the proteins cited; added tags and fusions are not shown. Lines headed by an entry give the natural chain unless they say otherwise; changes in a name come on top.
UniProt P36405: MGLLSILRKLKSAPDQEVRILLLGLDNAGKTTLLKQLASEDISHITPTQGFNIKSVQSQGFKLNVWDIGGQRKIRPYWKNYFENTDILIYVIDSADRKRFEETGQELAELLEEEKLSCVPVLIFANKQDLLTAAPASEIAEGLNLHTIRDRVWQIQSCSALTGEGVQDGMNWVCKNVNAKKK

Columns and labels:
[1] = target: T1, full-length human myc-Kif17 (human) (UniProt Q9P2E2); experiment: co-IP; reciprocal co-IPs from lysates of CHO cells co-transfected with two constructs; lysis buffer 25 mM Tris pH 7.5, 150 mM NaCl, 0.25% deoxycholate, 1% NP-40, 1 mM EDTA; Dynabeads Protein G with primary antibodies or GFP-Trap_M beads, 1 h at room temperature; Western blot
T1 sequence: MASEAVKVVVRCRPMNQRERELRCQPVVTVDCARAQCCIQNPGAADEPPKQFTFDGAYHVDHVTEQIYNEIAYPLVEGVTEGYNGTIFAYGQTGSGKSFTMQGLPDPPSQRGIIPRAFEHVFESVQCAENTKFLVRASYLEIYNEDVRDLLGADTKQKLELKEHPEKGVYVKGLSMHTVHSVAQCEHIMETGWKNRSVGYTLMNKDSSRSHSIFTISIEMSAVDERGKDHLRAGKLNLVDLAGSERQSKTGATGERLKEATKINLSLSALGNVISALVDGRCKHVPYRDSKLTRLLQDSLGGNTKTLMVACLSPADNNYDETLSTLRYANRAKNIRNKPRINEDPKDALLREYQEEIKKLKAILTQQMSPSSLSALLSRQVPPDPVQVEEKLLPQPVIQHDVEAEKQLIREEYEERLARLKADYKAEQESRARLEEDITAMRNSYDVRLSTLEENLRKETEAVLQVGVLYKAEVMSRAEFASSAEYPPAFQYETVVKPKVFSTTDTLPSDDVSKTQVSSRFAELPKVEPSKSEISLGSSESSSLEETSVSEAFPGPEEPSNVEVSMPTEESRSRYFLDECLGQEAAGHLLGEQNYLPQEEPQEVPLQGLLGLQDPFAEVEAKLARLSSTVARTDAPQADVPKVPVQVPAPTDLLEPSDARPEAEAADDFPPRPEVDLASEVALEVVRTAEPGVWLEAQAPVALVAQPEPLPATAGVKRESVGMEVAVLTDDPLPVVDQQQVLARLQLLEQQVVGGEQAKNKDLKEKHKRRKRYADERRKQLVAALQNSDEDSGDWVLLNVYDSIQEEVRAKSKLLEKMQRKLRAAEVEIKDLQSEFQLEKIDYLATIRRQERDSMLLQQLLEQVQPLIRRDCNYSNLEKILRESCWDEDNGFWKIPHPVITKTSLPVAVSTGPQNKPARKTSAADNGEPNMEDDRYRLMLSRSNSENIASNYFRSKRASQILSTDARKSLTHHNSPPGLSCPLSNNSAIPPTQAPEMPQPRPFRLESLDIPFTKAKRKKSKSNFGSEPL

[2] = target: T1, full-length human myc-Kif17 (human); experiment: co-IP; reciprocal co-IPs testing whether Kif17 forms a complex with both Arl3-GDP and RP2 (competition); Fig. S3

Arl3-T31N-vsv (from UniProt P36405 1-182)
binding [1]: binds
binding [2]: binds
